Reference: article PMC12280988

Target: T1, CKLF-like MARVEL transmembrane domain containing 3 (CMTM3), wild type (UniProt Q96MX0)
T1 sequence: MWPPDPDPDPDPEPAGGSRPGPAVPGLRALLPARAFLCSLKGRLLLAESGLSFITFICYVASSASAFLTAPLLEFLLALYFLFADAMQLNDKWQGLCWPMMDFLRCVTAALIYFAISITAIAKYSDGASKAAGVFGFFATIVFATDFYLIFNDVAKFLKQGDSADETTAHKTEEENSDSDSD
Assay: co-IP; HEK 293 cells transfected with CMTM3 and deleted PPARγ forms; precipitation with anti-Myc, immunoblotting with anti-Myc and anti-HA

PPARγ ligand binding domain (LBD) deletion form (domain or fragment)
binding: binds

No constants are given. Whether binding was seen depends on the method and setting. In cells and extracts the contact can be indirect. A result given as binding can be weak or reduced; the word gives no strength.
